Our source for the binding values is patent publication US20140275485A1.

These are yes or no findings as the source states them, for the method shown. Some binding calls cover weakened binding; strength is not graded here.

In test [1] the target is T1, Recombinant Lp-PLA2 (human) (UniProt Q13093).
T1 sequence (looked up): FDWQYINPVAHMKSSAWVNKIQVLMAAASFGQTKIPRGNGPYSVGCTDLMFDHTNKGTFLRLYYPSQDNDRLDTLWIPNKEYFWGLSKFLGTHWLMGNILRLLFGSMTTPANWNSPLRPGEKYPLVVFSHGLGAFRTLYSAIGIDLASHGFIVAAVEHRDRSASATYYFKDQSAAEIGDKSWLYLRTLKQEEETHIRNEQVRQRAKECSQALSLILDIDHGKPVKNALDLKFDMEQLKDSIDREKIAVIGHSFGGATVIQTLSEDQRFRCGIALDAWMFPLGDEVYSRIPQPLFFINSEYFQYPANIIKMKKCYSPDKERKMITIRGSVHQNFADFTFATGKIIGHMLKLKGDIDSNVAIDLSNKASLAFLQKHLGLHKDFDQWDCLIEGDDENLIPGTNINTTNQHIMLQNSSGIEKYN
Kind of test: sandwich ELISA, goat polyclonal anti-Lp-PLA2 capture. For orientation: An ELISA detects its analyte on a solid surface through an enzyme-linked reagent.

Another test addresses T2, Lp-PLA2 antigen (human) (UniProt Q13093).
T2 sequence (looked up): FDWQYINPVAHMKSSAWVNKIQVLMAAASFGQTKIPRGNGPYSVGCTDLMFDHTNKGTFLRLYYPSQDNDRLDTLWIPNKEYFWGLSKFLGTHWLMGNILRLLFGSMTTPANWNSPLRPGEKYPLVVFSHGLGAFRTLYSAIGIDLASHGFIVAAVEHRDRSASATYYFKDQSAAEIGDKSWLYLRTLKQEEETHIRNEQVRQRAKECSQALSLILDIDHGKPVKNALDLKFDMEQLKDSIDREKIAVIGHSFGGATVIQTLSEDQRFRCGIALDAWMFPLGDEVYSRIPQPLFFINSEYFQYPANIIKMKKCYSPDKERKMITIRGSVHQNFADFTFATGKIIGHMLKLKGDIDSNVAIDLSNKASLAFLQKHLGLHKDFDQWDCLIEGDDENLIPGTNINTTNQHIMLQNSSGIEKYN
The test can be described thus: Luminex pairing assay; members of a bin compete for binding to an Lp-PLA2 epitope.

B1: LpPLA2.B38.2 (antibody, IgG1, V domains shown)
VH: EVKLEESGPELKKPGETVKISCKASGYTFTDYSVHWVKQAPGKGLKWMGWINTDTGEPTFADDFKGRFAFSLETSTSTAYLQINNLKNEDTATYFCARGDNYLYYYTMDYWGQGISVTVSS
VL: DIVLTQTHKFMSTSVGDRVNITCKASQDVNTAVAWYQQKPGQSPKLLIKWASTRHTGVPDRFTGSGSGTDYIFTISSVQAEDLALYYCQQHYSTPWTFGGGTKLEIKR
With B1, the binding result (in test [1]; in the test with Lp-PLA2 antigen (human)) was “binds” throughout.
